# Measurements from the supplement of paper PMC4604168 (melanoma cell lines).
# The list shows a part of the results. Single values are uncertain, as repeats are few or missing.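 The apoptosis fraction was the count of cleaved-PARP antibody-stained nuclei relative to all DNA-stained nuclei, imaged in 1,536-well plates. Screening doses were set so most cells survived, and baseline and induced cleaved-PARP levels vary greatly across cell lines.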
# Legend:
# Experiment in all cases: cleaved PARP positive nuclei fraction relative to DMSO control; melanoma cells; higher = more apoptosis
# Conditions in all cases: library dose: low library concentration; 72 h
# [1] = test system: WM115
# [2] = test system: WM1716
# [3] = test system: WM1745
# [4] = test system: WM3526
# [5] = test system: WM3619
# [6] = test system: WM451Lu
Structure (SMILES),cleaved PARP positive nuclei fraction [1] [%],cleaved PARP positive nuclei fraction [2] [%],cleaved PARP positive nuclei fraction [3] [%],cleaved PARP positive nuclei fraction [4] [%],cleaved PARP positive nuclei fraction [5] [%],cleaved PARP positive nuclei fraction [6] [%]
"OCc1c[nH]c2ccccc12 [Indole-3-carbinol] + CN(C)S(=O)(=O)c1ccc2c(c1)/C(=C/c1cc3c([nH]1)CCCC3)C(=O)N2 [SU6656] (first compound 0.8 µM, partner dose 0.4 µM)",174,58.1,228,49.4,77.3,76
"Cc1ccc(NC(=O)c2cccc(N(C)C)c2)cc1NC(=O)c1ccc(O)cc1 + CN(C)S(=O)(=O)c1ccc2c(c1)/C(=C/c1cc3c([nH]1)CCCC3)C(=O)N2 [SU6656] (first compound 2 µM, partner dose 0.4 µM)",416,81.9,104,456,105,220
"O=C(Nc1cccc(Cl)c1)Nc1ncc(CCNc2ncnc3ccsc23)s1 + N#Cc1c(O)c2c(-c3ccc(-c4ccccc4O)cc3)csc2[nH]c1=O [A769662] (first compound 0.0008 µM, partner dose 2 µM)",141,107,102,66,84.2,74.4
"Clc1ccc(Nc2nnc(Cc3ccncc3)c3ccccc23)cc1 [vatalanib] + COc1ccc(Cl)c(Nc2nc3ccccc3nc2NS(=O)(=O)c2cccc(NC(=O)C(C)(C)N)c2)c1 [XL147] (first compound 2 µM, partner dose 0.8 µM)",107,279,84.2,39.3,106,47.5
"COCC[n+]1c2c(n(Cc3cnccn3)c1C)C(=O)c1ccccc1C2=O + CO[C@@H]1[C@H](N(C)C(=O)c2ccccc2)C[C@H]2O[C@]1(C)n1c3ccccc3c3c4c(c5c6ccccc6n2c5c31)C(=O)NC4 [Midostaurin] (first compound 0.0004 µM, partner dose 0.08 µM)",98.4,116,82.4,70.9,110,288
"CO[C@@H]1[C@H](N(C)C(=O)c2ccccc2)C[C@H]2O[C@]1(C)n1c3ccccc3c3c4c(c5c6ccccc6n2c5c31)C(=O)NC4 [Midostaurin] + COc1cc2c(Oc3ccc4[nH]c(C)cc4c3F)ncnc2cc1OCCCN1CCCC1 [cediranib] (first compound 0.08 µM, partner dose 0.4 µM)",74.4,201,107,55.1,88.2,70.9
"CO[C@@H]1[C@H](N(C)C(=O)c2ccccc2)C[C@H]2O[C@]1(C)n1c3ccccc3c3c4c(c5c6ccccc6n2c5c31)C(=O)NC4 [Midostaurin] + NCC(=O)Nc1ccc(-n2nc(C(F)(F)F)cc2-c2ccc3c(ccc4ccccc43)c2)cc1 [OSU03012] (first compound 0.08 µM, partner dose 1 µM)",148,170,109,129,108,251
"C[C@]1(c2nc3c(C(N)=O)cccc3[nH]2)CCCN1 [Veliparib] + COc1ccc2c(c1)CCC1C2CCC2(C)C(NCCCCCCN3C(=O)C=CC3=O)CCC12 [U73122] (first compound 1.4 µM, partner dose 0.4 µM)",51.3,90.6,125,64.8,92.6,64.1
"O=C(Nc1cccc(Cl)c1)Nc1ncc(CCNc2ncnc3ccsc23)s1 + O=C(Nc1ccccc1)c1cc([N+](=O)[O-])ccc1Cl [GW9662] (first compound 0.0008 µM, partner dose 2 µM)",319,98.9,123,186,100,60.3
"NC(=O)Nc1cc(-c2cccc(F)c2)sc1C(=O)N[C@H]1CCCNC1 + CN(NC(=O)CC(=O)NN(C)C(=S)c1ccccc1)C(=S)c1ccccc1 [STA4783] (first compound 0.02 µM, partner dose 0.006 µM)",196,226,326,66.2,196,64.9
"Cc1ccc(NC(=O)c2cccc(N(C)C)c2)cc1NC(=O)c1ccc(O)cc1 + O=S(=O)(c1ccccc1)N(CC(F)(F)F)c1ccc(C(O)(C(F)(F)F)C(F)(F)F)cc1 [T0901317] (first compound 2 µM, partner dose 1.4 µM)",47.5,89.3,130,75.9,184,68.7
"C=CCNC1=C2C[C@@H](C)C[C@H](OC)[C@H](O)[C@@H](C)/C=C(\C)[C@H](OC(N)=O)[C@@H](OC)/C=C\C=C(/C)C(=O)NC(=CC1=O)C2=O [Tanespimycin] + COCC[n+]1c2c(n(Cc3cnccn3)c1C)C(=O)c1ccccc1C2=O [YM155] (first compound 0.002 µM, partner dose 0.0004 µM)",70.4,244,95.7,69.2,84.1,57.4
"Cn1c(Nc2ccc(C(F)(F)F)cc2)nc2cc(Oc3ccnc(-c4ncc(C(F)(F)F)[nH]4)c3)ccc21 + c1cc(-c2cnn3cc(-c4ccc(OCCN5CCCCC5)cc4)cnc23)ccn1 [Dorsomorphin] (first compound 0.08 µM, partner dose 0.4 µM)",140,75.7,209,104,113,181
"C=CCNC1=C2C[C@@H](C)C[C@H](OC)[C@H](O)[C@@H](C)/C=C(\C)[C@H](OC(N)=O)[C@@H](OC)/C=C\C=C(/C)C(=O)NC(=CC1=O)C2=O [Tanespimycin] + NCC(=O)Nc1ccc(-n2nc(C(F)(F)F)cc2-c2ccc3c(ccc4ccccc43)c2)cc1 [OSU03012] (first compound 0.002 µM, partner dose 1 µM)",125,43.8,90.4,122,95.6,190
"Cn1cncc1[C@@](N)(c1ccc(Cl)cc1)c1ccc2c(c1)c(-c1cccc(Cl)c1)cc(=O)n2C [tipifarnib] + COc1cc2c(Oc3ccc4[nH]c(C)cc4c3F)ncnc2cc1OCCCN1CCCC1 [cediranib] (first compound 0.01 µM, partner dose 0.4 µM)",73.7,137,98.5,59.8,77.4,144
"O=C(CCCCCCC(=O)Nc1ccccc1)NO [vorinostat] + Cn1cncc1[C@@](N)(c1ccc(Cl)cc1)c1ccc2c(c1)c(-c1cccc(Cl)c1)cc(=O)n2C [tipifarnib] (first compound 0.08 µM, partner dose 0.01 µM)",167,149,96.7,80.8,109,130
"CC(C)(C)c1cnc(CSc2cnc(NC(=O)C3CCNCC3)s2)o1 + CC(C)CCN1c2nc(Nc3cc(F)c(O)c(F)c3)ncc2N(C)C(=O)C1C [BID1870] (first compound 0.01 µM, partner dose 0.2 µM)",109,147,110,159,93.7,31.7
"Cc1ccc(NC(=O)c2cccc(N(C)C)c2)cc1NC(=O)c1ccc(O)cc1 + CCCCCCCCCCCC1=C(O)C(=O)C=C(O)C1=O [Embelin] (first compound 2 µM, partner dose 1.2 µM)",53,65,114,46.1,79.7,119
"Nc1cccc2c1CN(C1CCC(=O)NC1=O)C2=O (stereo unspecified) [lenalidomide] + C[C@]1(c2nc3c(C(N)=O)cccc3[nH]2)CCCN1 [Veliparib] (first compound 1 µM, partner dose 1.4 µM)",92.3,50.5,104,38.6,90.9,21.1
"OCc1c[nH]c2ccccc12 [Indole-3-carbinol] + COc1ccc2c(c1)CCC1C2CCC2(C)C(NCCCCCCN3C(=O)C=CC3=O)CCC12 [U73122] (first compound 0.8 µM, partner dose 0.4 µM)",120,101,81.9,71.6,86.3,36.7
"C=CCn1c(=O)c2cnc(Nc3ccc(N4CCN(C)CC4)cc3)nc2n1-c1cccc(C(C)(C)O)n1 + N#Cc1c(O)c2c(-c3ccc(-c4ccccc4O)cc3)csc2[nH]c1=O [A769662] (first compound 0.02 µM, partner dose 2 µM)",221,42.7,111,71.3,121,70.2
"C=CCn1c(=O)c2cnc(Nc3ccc(N4CCN(C)CC4)cc3)nc2n1-c1cccc(C(C)(C)O)n1 + O=c1cc(-c2cccc3c2Sc2ccccc2S3)oc(N2CCOCC2)c1 [KU55933] (first compound 0.02 µM, partner dose 1 µM)",75.1,64.9,136,161,224,120
"OCc1c[nH]c2ccccc12 [Indole-3-carbinol] + CC(C)(C)c1cnc(CSc2cnc(NC(=O)C3CCNCC3)s2)o1 [SNS-032] (first compound 0.8 µM, partner dose 0.01 µM)",45.2,42.2,85.3,51.6,82.4,199
"CC(=O)c1c(C)c2cnc(Nc3ccc(N4CCNCC4)cn3)nc2n(C2CCCC2)c1=O [palbociclib] + COc1cc2c(Oc3ccc4[nH]c(C)cc4c3F)ncnc2cc1OCCCN1CCCC1 [cediranib] (first compound 0.04 µM, partner dose 0.4 µM)",328,100,143,92.6,110,115
"COCC[n+]1c2c(n(Cc3cnccn3)c1C)C(=O)c1ccccc1C2=O + N#Cc1c(O)c2c(-c3ccc(-c4ccccc4O)cc3)csc2[nH]c1=O [A769662] (first compound 0.0004 µM, partner dose 2 µM)",150,104,100,74.1,67.6,186
"Cc1nc(Nc2ncc(C(=O)Nc3c(C)cccc3Cl)s2)cc(N2CCN(CCO)CC2)n1 [dasatanib] + COc1cc(Nc2ncc(F)c(Nc3ccc4c(n3)NC(=O)C(C)(C)O4)n2)cc(OC)c1OC [Tamatinib] (first compound 0.004 µM, partner dose 0.4 µM)",119,414,179,135,99.1,124

# 4 neighbouring records out of the list so far, for reference:
Structure (SMILES),cleaved PARP positive nuclei fraction [1] [%],cleaved PARP positive nuclei fraction [2] [%],cleaved PARP positive nuclei fraction [3] [%],cleaved PARP positive nuclei fraction [4] [%],cleaved PARP positive nuclei fraction [5] [%],cleaved PARP positive nuclei fraction [6] [%]
"CC(C)(C)c1cnc(CSc2cnc(NC(=O)C3CCNCC3)s2)o1 + CC(C)CCN1c2nc(Nc3cc(F)c(O)c(F)c3)ncc2N(C)C(=O)C1C [BID1870] (first compound 0.01 µM, partner dose 0.2 µM)",109,147,110,159,93.7,31.7
"Cc1ccc(NC(=O)c2cccc(N(C)C)c2)cc1NC(=O)c1ccc(O)cc1 + CCCCCCCCCCCC1=C(O)C(=O)C=C(O)C1=O [Embelin] (first compound 2 µM, partner dose 1.2 µM)",53,65,114,46.1,79.7,119
"Nc1cccc2c1CN(C1CCC(=O)NC1=O)C2=O (stereo unspecified) [lenalidomide] + C[C@]1(c2nc3c(C(N)=O)cccc3[nH]2)CCCN1 [Veliparib] (first compound 1 µM, partner dose 1.4 µM)",92.3,50.5,104,38.6,90.9,21.1
"OCc1c[nH]c2ccccc12 [Indole-3-carbinol] + COc1ccc2c(c1)CCC1C2CCC2(C)C(NCCCCCCN3C(=O)C=CC3=O)CCC12 [U73122] (first compound 0.8 µM, partner dose 0.4 µM)",120,101,81.9,71.6,86.3,36.7
